In patent US9629817B2 (priority 2005, dated 2017):

Columns and labels:
[1] = tested on: Pigs; conditions: pig, in vivo, ip, 8 mg/kg
Protocol: Pigs of either sex and weighing between 20 and 35 kg were each anaesthetised with thiopentone sodium (10-15 mg/kg iv) and maintained under general anaesthesia with isoflurane (0.5-2% in oxygen). Artificial ventilation was maintained at a volume of 15 ml/kg and a rate of 12 breaths per minute. […] Subsequent to a mid-stemotomy and division of the pericardium, the left anterior coronary artery (LAD) was occluded mid-way along its length by permanent ligation.

[2] = tested on: Pigs; conditions: ECG from half an hour prior to coronary occlusion to three hours post occlusion; riluzole ip 8 mg/kg

## Nc1nc2ccc(OC(F)(F)F)cc2s1 [riluzole, 2-amino-6-tritluoromethoxybenzothiazole]
[1]
  region of discolouration of the epicardial layer distal to the coronary artery occlusion, vs control group: notably smaller and less discoloured
[2]
  P-R interval, riluzole vs control group: no significant differences
  QRS interval, riluzole vs control group: no significant differences
  R-R interval, riluzole vs control group: no significant differences
